Laboratory results published in PMC3458735, “Design of a novel tryptophan-rich membrane-active antimicrobial peptide from the membrane-proximal region of the HIV glycoprotein, gp41” (Beilstein Journal of Organic Chemistry, 2012).

Assays:
[1] = Differential scanning calorimetry with DPPC; conditions: for effect on the phase transitions of DPPC lipids (in words): peptide:lipid molar ratio 1:10, 0.5 mg/mL lipid, 20 mM phosphate, 130 mM NaCl, pH 7.4; for sharp transition of DPPC mixed with peptide: final heating scan, peptide:lipid 1:10, main transition of pure DPPC at 41 °C
[2] = Differential scanning calorimetry with DPPG; conditions: peptide:lipid 1:10; main transition of pure DPPG at 40 °C

Row | Substance | effect on the phase transitions of DPPC lipids (in words) [1] | new transition(s) of DPPG mixed with peptide [2] | sharp transition of DPPC mixed with peptide [1]
1 | KFAKKFKWFAKAAFKFFKK-NH2 [gp41w-FKA] | very little effect | 47 °C | 
2 | KWARLWRWFRITRWLWYIK-NH2 [gp41w-4R] | very drastic effects | 33 °C and 36 °C | ~ 36 °C
3 | KWAKKWKWFAKAAWKWYKK-NH2 [gp41w-KA] | very drastic effects | 47 °C | ~ 40 °C
4 | KWASLWNWFNITNWLWYIK-NH2 [gp41w] | very little effect | ~ 43 °C | 

Values joined by “and” are separate entries in the source; they are usually repeats but may differ in a detail not shown here. Equal values may be shown once. Where no end group is shown, it is not given here.
